No constants are given. Whether binding was seen depends on the method and setting. Some binding calls cover weakened binding; strength is not graded here.
What was measured:
[1] = target: human chondroitin sulfate proteoglycan 4 (CSPG4) on cells (human) (UniProt Q6UVK1); experiment: IHC, human melanoma tissue sample 2659, 1 µg/mL
[2] = target: human chondroitin sulfate proteoglycan 4 (CSPG4) on cells (human) (UniProt Q6UVK1); experiment: flow cytometry on CSPG4+ M14 cells after repeated washes
[3] = target: human chondroitin sulfate proteoglycan 4 (CSPG4) on cells (human) (UniProt Q6UVK1); experiment: IHC, normal human tissue, ileum, 1 µg/mL
[4] = target: human chondroitin sulfate proteoglycan 4 (CSPG4) on cells (human) (UniProt Q6UVK1); experiment: IHC, normal human tissue, sigmoid colon, 1 µg/mL
[5] = target: human chondroitin sulfate proteoglycan 4 (CSPG4) on cells (human) (UniProt Q6UVK1); experiment: IHC, human melanoma tissue sample 508, 1 µg/mL
[6] = target: human chondroitin sulfate proteoglycan 4 (CSPG4) on cells (human) (UniProt Q6UVK1); experiment: IHC, human melanoma tissue sample 2003, 1 µg/mL
[7] = target: human chondroitin sulfate proteoglycan 4 (CSPG4) on cells (human) (UniProt Q6UVK1); experiment: IHC, human melanoma tissue sample 2658, 1 µg/mL
[8] = target: human chondroitin sulfate proteoglycan 4 (CSPG4) on cells (human) (UniProt Q6UVK1); experiment: IHC, human melanoma tissue sample 2655, 1 µg/mL
[9] = target: human chondroitin sulfate proteoglycan 4 (CSPG4) on cells (human) (UniProt Q6UVK1); experiment: IHC, human melanoma tissue sample 2671, 1 µg/mL
[10] = target: human chondroitin sulfate proteoglycan 4 (CSPG4) on cells (human) (UniProt Q6UVK1); experiment: FACS on M14 cells, % of MFI of maximum binding (5 µg), FITC goat anti-mouse secondary
[11] = target: human chondroitin sulfate proteoglycan 4 (CSPG4) on cells (human) (UniProt Q6UVK1); experiment: IHC, human melanoma tissue sample 2667, 1 µg/mL
[12] = target: human chondroitin sulfate proteoglycan 4 (CSPG4) on cells (human) (UniProt Q6UVK1); experiment: flow cytometry on CSPG4+ M14 cells after repeated washes with PBS / 2 mM EDTA, FITC goat anti-mouse secondary
[13] = target: human chondroitin sulfate proteoglycan 4 (CSPG4) on cells (human) (UniProt Q6UVK1); experiment: IHC, normal human tissue, stomach, 1 µg/mL
[14] = target: human chondroitin sulfate proteoglycan 4 (CSPG4) on cells (human) (UniProt Q6UVK1); experiment: IHC, human melanoma tissue sample 2668, 1 µg/mL
[15] = target: D2.8.11, a peptide epitope for murine 763 (human); experiment: SPR (Biacore T-100), D2.8.11-coated chip, composite normalized sensorgram
[16] = target: human chondroitin sulfate proteoglycan 4 (CSPG4) on cells (human) (UniProt Q6UVK1); experiment: IHC, human melanoma tissue sample 2669, 1 µg/mL
[17] = target: human chondroitin sulfate proteoglycan 4 (CSPG4) on cells (human) (UniProt Q6UVK1); experiment: IHC, human melanoma tissue sample 2657, 1 µg/mL
[18] = target: human chondroitin sulfate proteoglycan 4 (CSPG4) on cells (human) (UniProt Q6UVK1); experiment: IHC, human melanoma tissue sample 2664, 1 µg/mL
[19] = target: human chondroitin sulfate proteoglycan 4 (CSPG4) on cells (human) (UniProt Q6UVK1); experiment: IHC, human melanoma tissue sample 2715, 1 µg/mL
[20] = target: human chondroitin sulfate proteoglycan 4 (CSPG4) on cells (human) (UniProt Q6UVK1); experiment: IHC, human melanoma tissue sample 319, 1 µg/mL
[21] = target: human chondroitin sulfate proteoglycan 4 (CSPG4) on cells (human) (UniProt Q6UVK1); experiment: IHC, human melanoma tissue sample 524, 1 µg/mL
[22] = target: human chondroitin sulfate proteoglycan 4 (CSPG4) on cells (human) (UniProt Q6UVK1); experiment: IHC, human melanoma tissue sample 2716, 1 µg/mL

Amino acid sequences for entries named in this document (tags omitted). A change or cut given only in a name is not applied to a line headed by its entry.
UniProt Q6UVK1: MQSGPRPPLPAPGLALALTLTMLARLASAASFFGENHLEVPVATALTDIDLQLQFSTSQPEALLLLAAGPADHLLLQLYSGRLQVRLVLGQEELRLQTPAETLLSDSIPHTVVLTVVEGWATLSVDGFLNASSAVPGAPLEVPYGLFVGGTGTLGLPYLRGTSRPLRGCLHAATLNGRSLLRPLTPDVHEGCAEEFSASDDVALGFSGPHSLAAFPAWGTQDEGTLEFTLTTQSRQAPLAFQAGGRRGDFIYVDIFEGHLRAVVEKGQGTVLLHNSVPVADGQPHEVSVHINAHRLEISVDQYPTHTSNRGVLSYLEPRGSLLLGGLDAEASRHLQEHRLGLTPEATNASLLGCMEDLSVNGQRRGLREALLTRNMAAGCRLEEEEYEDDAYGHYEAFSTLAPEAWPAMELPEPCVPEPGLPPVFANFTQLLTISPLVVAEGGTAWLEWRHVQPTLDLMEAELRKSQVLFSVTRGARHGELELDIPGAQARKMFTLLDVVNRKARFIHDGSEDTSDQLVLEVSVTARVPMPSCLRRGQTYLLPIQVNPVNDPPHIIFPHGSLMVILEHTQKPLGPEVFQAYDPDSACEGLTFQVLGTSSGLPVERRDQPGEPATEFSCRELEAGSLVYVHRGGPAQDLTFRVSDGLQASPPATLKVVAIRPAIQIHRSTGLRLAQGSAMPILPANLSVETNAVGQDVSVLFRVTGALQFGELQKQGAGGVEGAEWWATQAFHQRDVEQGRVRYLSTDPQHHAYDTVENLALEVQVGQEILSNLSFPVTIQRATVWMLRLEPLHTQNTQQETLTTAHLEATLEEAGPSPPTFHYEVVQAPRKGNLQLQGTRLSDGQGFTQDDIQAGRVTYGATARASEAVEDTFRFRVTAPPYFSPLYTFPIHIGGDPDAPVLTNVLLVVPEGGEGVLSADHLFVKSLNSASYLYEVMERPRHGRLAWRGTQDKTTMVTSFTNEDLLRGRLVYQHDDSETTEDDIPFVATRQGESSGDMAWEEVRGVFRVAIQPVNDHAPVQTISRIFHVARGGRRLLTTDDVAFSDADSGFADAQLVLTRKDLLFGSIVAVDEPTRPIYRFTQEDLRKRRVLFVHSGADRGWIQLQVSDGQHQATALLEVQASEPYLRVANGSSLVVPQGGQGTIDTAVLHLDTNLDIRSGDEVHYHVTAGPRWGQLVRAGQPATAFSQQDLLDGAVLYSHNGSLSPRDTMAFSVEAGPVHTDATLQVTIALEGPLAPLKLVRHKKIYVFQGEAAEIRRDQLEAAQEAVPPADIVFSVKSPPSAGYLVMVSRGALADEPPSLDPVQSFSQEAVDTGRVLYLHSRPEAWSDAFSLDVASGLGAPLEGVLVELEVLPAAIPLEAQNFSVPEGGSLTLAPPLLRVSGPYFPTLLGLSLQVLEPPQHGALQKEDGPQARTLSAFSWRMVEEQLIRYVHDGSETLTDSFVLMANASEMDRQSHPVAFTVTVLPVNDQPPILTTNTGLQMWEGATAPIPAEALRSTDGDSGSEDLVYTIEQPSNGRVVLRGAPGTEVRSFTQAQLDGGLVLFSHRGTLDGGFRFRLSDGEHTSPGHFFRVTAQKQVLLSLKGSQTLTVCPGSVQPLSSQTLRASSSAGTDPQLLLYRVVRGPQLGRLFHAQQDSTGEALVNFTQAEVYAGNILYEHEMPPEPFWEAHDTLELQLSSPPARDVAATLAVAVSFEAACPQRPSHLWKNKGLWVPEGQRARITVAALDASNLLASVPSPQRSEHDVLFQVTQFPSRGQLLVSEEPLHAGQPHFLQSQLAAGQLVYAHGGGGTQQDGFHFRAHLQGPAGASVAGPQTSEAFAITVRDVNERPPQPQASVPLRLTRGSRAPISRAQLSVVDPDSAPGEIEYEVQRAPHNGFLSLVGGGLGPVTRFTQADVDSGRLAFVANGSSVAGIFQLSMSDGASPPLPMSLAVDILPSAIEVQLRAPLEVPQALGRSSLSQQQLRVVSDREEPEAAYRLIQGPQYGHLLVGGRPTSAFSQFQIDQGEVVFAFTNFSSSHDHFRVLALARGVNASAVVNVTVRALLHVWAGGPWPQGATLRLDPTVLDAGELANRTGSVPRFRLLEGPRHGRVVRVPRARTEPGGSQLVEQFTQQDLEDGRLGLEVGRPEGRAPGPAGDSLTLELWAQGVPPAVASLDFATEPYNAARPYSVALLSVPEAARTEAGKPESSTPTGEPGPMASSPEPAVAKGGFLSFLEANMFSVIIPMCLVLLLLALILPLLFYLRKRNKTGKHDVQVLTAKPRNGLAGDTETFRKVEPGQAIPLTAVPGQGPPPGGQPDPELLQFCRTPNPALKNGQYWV

Measured: binding

B1: murine anti-CSPG4 antibody 763.74 (antibody, V domains shown)
VH: QIQLVQSGPELKKPGETVKISCKASGYTFTDYSMHWVKKTPGKGLKWLGWINTATGEPTYADDFKGRFAISLETSARTVYLQINNLRNEDTATYFCFSYYDYWGQGTTLTVS
VL: DIKLSQSPSILSVTPGETVSLSCRASQTIYKNLHWYQQKSHRSPRLLIKYGSDSISGIPSRFTGSGSGTDYTLNINSVKPEDEGIYYCLQGYSTPWTFGGGTKLEIK
binds: all assays above

B2: ch763IgG1, chimeric 763 HC and LC in IgG1 format (antibody, V domains shown)
VH: QIQLVQSGPELKKPGETVKISCKASGYTFTDYSMHWVKKTPGKGLKWLGWINTATGEPTYADDFKGRFAISLETSARTVYLQINNLRNEDTATYFCFSYYDYWGQGTTLTVSA
VL: DIKLSQSPSILSVTPGETVSLSCRASQTIYKNLHWYQQKSHRSPRLLIKYGSDSISGIPSRFTGSGSGTDYTLNINSVKPEDEGIYYCLQGYSTPWTFGGGTKLEIKR
binds: [15]
